{"source": "paper PMC4180072", "key": {"[1]": {"target": "T1, SMAD4 (PANC-1 nuclear extract) (Homo sapiens (PANC-1 cells)) (UniProt Q13485)", "T1 sequence (looked up, limits assumed)": "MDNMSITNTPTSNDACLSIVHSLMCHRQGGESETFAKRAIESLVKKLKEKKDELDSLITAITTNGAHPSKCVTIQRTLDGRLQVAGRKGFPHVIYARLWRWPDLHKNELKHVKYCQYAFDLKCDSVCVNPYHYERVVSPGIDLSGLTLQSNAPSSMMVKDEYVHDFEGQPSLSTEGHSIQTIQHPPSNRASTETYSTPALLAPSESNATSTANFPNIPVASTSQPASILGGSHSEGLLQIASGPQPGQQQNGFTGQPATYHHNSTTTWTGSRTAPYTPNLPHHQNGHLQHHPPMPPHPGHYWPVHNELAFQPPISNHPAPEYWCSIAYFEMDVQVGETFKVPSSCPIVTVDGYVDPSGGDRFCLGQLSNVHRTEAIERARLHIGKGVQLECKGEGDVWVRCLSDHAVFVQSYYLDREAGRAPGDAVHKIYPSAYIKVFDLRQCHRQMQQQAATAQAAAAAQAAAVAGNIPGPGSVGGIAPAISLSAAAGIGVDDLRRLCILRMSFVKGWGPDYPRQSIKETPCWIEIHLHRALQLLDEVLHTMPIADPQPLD", "assay": "EMSA", "conditions": "band inhibited by anti-SMAD4, quenched by WT oligo 2; EMSA with nuclear extracts; 25-fold competitor; pH and temperature not stated; protein in an extract"}, "[2]": {"target": "T2, SMAD4 (HPNE nuclear extract) (Homo sapiens (HPNE cells)) (UniProt Q13485)", "T2 sequence (looked up, limits assumed)": "T1 sequence (looked up, limits assumed)", "assay": "EMSA", "conditions": "band inhibited by anti-SMAD4, quenched by 25-fold WT oligo; EMSA with nuclear extracts; 25-fold competitor; pH and temperature not stated; protein in an …"}, "[3]": {"target": "T1, SMAD4 (PANC-1 nuclear extract) (Homo sapiens (PANC-1 cells))", "assay": "competition with a labelled probe", "conditions": "mutant competitor vs oligo 2 probe; EMSA with nuclear extracts; 25-fold competitor; pH and temperature not stated; protein in an extract"}, "[4]": {"target": "T2, SMAD4 (HPNE nuclear extract) (Homo sapiens (HPNE cells))", "assay": "competition with a labelled probe", "conditions": "EMSA with nuclear extracts, 25-fold competitor, pH and temperature not stated, protein in an extract"}}, "note": "For at least one entry, the source does not settle the construct or the ends of the probe. Where cells or extracts were used, other partners may take part. For part of these data: A negative result means that nothing was seen under these conditions. Where a protein sequence is shown, tags need not be part of it."}
{"sequence": "CGAGCGCCTCAGACAACAATAGCTAG (double strand) [CDH2 SBE oligo 2 WT]", "values": [{"measurement": "binding result", "setting": "[1]", "result": "binds"}, {"measurement": "binding result", "setting": "[2]", "result": "binds"}]}
{"sequence": "TCTTAAAACAAGTAATGCTTTGAGCA (double strand) [CDH2 SBE oligo 2 mutant]", "values": [{"measurement": "binding result", "setting": "[3]", "result": "no binding"}, {"measurement": "binding result", "setting": "[4]; 25-fold mutant competitor vs oligo 2 probe", "result": "no binding"}]}
{"sequence": "TTCCTGTGAATACTTTAAAAAGACTT (double strand) [CDH2 SBE oligo 4 mutant]", "values": [{"measurement": "binding result", "setting": "[4]; 25-fold mutant competitor vs oligo 4 probe", "result": "no binding"}]}
{"sequence": "TTCCTGTGAATACTTTGTCTAGACTT (double strand) [CDH2 SBE oligo 4 WT]", "values": [{"measurement": "binding result", "setting": "[2]", "result": "binds"}]}
